# Primary screen of a compound library

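Phenotypic screen: M. tuberculosis growth, cholesterol and DPPC medium, 4 days; the read-out is not stated. Concentration: 500 µM. Higher reads as more growth inhibition (inferred: compounds with an IC50 in retests scored well above the rest). Size under these conditions: about 18,000 compounds, about 900 of them at 50% or above in at least one test.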

The filed quantity is “Percent Effect” (%).
The controls that fix the scale are not given in the record; negative values are as filed.
The compounds are a random part of those screened.

{"compound": "CC(CO)(CO)NC(=O)Nc1cc(Br)ccc1F", "effect": 24.46}
{"compound": "N#Cc1ncn(CC2CCCCO2)c1C#N", "stereo": "configuration not stated", "effect": 15.6}
{"compound": "CCC1c2ccsc2CCN1C(C)=O", "stereo": "configuration not stated", "effect": 23.81}
{"compound": "CCCNC(=O)Nc1cccc(C(=O)N(C)C)c1", "effect": -5.927}
{"compound": "CNCC(=O)NCc1cnn(Cc2ccccc2)c1", "effect": -8.371}
{"compound": "FC(F)(F)CC1CNCCO1", "stereo": "configuration not stated", "effect": -3.307}
{"compound": "NC(=O)C(NC(=O)CCc1ccco1)c1ccccc1", "stereo": "configuration not stated", "effect": -5.323}
{"compound": "O=C(CCNCc1cccnc1)NCc1ccccc1", "effect": 5.241}
{"compound": "CC(Cc1ccco1)NS(=O)(=O)N1CCOCC1", "stereo": "configuration not stated", "effect": 1.77}
{"compound": "CS(=O)(=O)CC1(CNCc2cccnc2)CC1", "effect": -4.065}
{"compound": "CCNS(=O)(=O)C1CCN(Cc2cn(C)nc2CC)C1", "stereo": "configuration not stated", "effect": 9.655}
{"compound": "CCN(CCn1cccn1)C(=O)c1c(O)cccc1O", "effect": 2.488}
{"compound": "CN1C(=O)C[C@H](CN)[C@H]1c1cccnc1", "effect": -4.024}
{"compound": "CN(CC1CCOCC1)C(=O)c1sccc1S(N)(=O)=O", "effect": -12.5}
{"compound": "CCCC(CN)OC", "stereo": "configuration not stated", "effect": 0.4601}
{"compound": "CCn1cnnc1CC1CCCNC1", "stereo": "configuration not stated", "effect": -13.46}
{"compound": "CNCC(=O)NCc1cnc(-c2cccc(OC)c2)s1", "effect": 31.42}
{"compound": "CCOC(=O)C(C)Cn1cc(Br)cn1", "stereo": "configuration not stated", "effect": 5.422}
{"compound": "CCC(CO)(CO)NCc1csc(-c2cccs2)n1", "effect": 63.42}
{"compound": "CC(C)N(CC(N)=O)CC(=O)NCCc1cccs1", "effect": 6.73}
{"compound": "Cn1cnnc1CCNC(=O)Cc1ccsc1", "effect": -11.55}
{"compound": "O=C(c1ccc2c(c1)CCCC2)N1CCOCC1CO", "stereo": "configuration not stated", "effect": 17.25}
{"compound": "COC(C)C(=O)N(C)c1ncc(Cl)cc1Cl", "stereo": "configuration not stated", "effect": 8.976}
{"compound": "CNC(=O)c1cc2ccccc2[nH]c1=O", "effect": -25.87}
{"compound": "CCN(CCCNC(=O)c1cccnc1O)S(C)(=O)=O", "effect": -14.7}
{"compound": "COc1ccc(F)cc1C(=O)Nc1cnns1", "effect": -1.545}
{"compound": "COC(=O)c1ccc(Cn2ccnn2)c(F)c1", "effect": 39.74}
{"compound": "CC(O)CN(CCN)C(=O)OC(C)(C)C", "stereo": "configuration not stated", "effect": 0.4582}
{"compound": "O=S(=O)(CCc1ccccc1)N1CCC[C@H]1CO", "effect": 2.749}
{"compound": "CC(NC(=O)Nc1ccccn1)C1CCN(C)CC1", "stereo": "configuration not stated", "effect": -9.967}

For reference, 3 entries once more:

- COC(=O)c1ccc(Cn2ccnn2)c(F)c1 : 39.74%
- CCN(CCn1cccn1)C(=O)c1c(O)cccc1O : 2.488%
- CCn1cnnc1CC1CCCNC1 (configuration not stated) : -13.46%

From ChEMBL document CHEMBL3988442, “University of Dundee, Small-Polar-MMV Screening Library” (2021).